According to patent US20050063956A1, “Method and device for attracting insects” (Colorado State University Research Foundation, priority 1998, published 2005):
At least one compound was matched to its structure with a doubt left.

How the values were obtained:
[1] = system: western corn root worm larvae; assay: Glass bead Y-tube choice-test bioassay (Example 18); type: in vivo, Diabrotica virgifera virgifera LeConte; settings: dose-response test, syringe sources
Description: Bioassay Apparatus. The choice-test bioassay apparatus (FIG. 34) was constructed from a glass Y-tube filled with glass beads to simulate the thigmotactic cues of the soil environment that are ordinarily encountered by western corn root worm larvae. The glass Y-tube was fabricated by a local glassblower (9.5 mm inside diameter, 60° angles, with each branch 3 cm long), and clamped to a ring stand with 2 branches of the “Y” facing down. A glass connection tube (4 cm long, 0.5 cm diameter) with a piece of vinyl screen (2.5-mm mesh) held over 1 end by a 0.5-cm section of Teflon tubing (6 mm inside diameter) was inserted snugly into the end of each of the arms of the Y-tube to support the glass beads. Glass beads (3 mm, cat. no. 11-312A, Fisher Scientific, Pittsburgh, Pa.) were poured into the top of the Y-tube, filling the entire apparatus to within 0.5 cm of the top (250 beads). A 5-mm NMR tube cap (cat. no. 100-0050, Drummond Scientific, Broomall, Pa.) was fitted into the other end of each glass connection tube, with a hole to allow snug insertion of a 20-cm piece of slender Teflon tubing (0.8 mm inside diameter) for introduction of volatile chemical cues into each arm of the bioassay apparatus. Two techniques were used to introduce candidate chemical cues into the 2 arms of the apparatus: 1 used shell vials as chemical sources, and the other used syringes as chemical sources. […]

Reticulitermes tibialis = assay: T-tube choice-test behavioral bioassay with CO2; type: in vivo; settings: tested 1, 2, 5, 10, 20, 50 and 500 mmol per mol versus ambient air, 15 min
Description: (§1) Behavioral bioassay apparatus: The choice-test bioassay apparatus was constructed from a glass T-tube (5 mm inside diameter, 5 mm stem, with each branch 4.5 cm long). Each branch of the ‘T’ was bent downward (2.5 cm from the junction of the ‘T’) at a 45° angle to form a pitfall trap. A 5 mm NMR cap (cat. no. 100-0050, Drummond Scientific, Broomall, Pa.) with a 1 mm pinhole in it was firmly pushed over the end of each bent branch. A 25 cm length of Teflon tubing (0.8 mm inside diameter) was inserted 3 mm into the hole in each NMR cap and the other end of the tubing was connected to a 35 ml polyethylene syringe (cat. no. 106-0490, Sherwood Medical, St. Louis, Mo.). The two 35-ml syringes were connected to a syringe pump which was adjusted to provide an airflow of 1 ml per min into each choice arm of the bioassay apparatus.
(§2) Mixtures of CO2 and ambient air were tested to determine the termite response to a range of CO2 concentrations. […] The CO2 concentration of the syringes was determined by using GC-MS-SIM analysis (see below) before each bioassay. […]
(§3) Procedure: For bioassays, termite workers were collected from plastic tubs by using a camel's hair brush and were placed into a holding container constructed from a 3 cm length of Teflon tubing (8 mm inside diameter). […] Bioassays were conducted for 15 min, after which the number of termites in each pitfall was recorded. […]

Reticulitermes flavipes = assay: T-tube choice-test behavioral bioassay with CO2; type: in vivo; settings: tested 1, 2, 5, 10, 20, 50 and 500 mmol per mol versus ambient air, 15 min
Description: as §1, §2, §3

[2] = system: Reticulitermes virginicus; assay: T-tube choice-test behavioral bioassay with CO2; type: in vivo; settings: tested 5, 10, 20 and 50 mmol per mol versus ambient air, 15 min
Description: as §1, §2, §3

## O=C=O [CO2, carbon dioxide]
[1]
  attractive range of CO2 concentrations: 1.34±0.05 to 85.6±1.20
Reticulitermes tibialis
  CO2 concentrations to which termites were attracted: 5, 10 and 20 mmol per mol
Reticulitermes flavipes
  CO2 concentrations to which termites were attracted: 2, 5 and 10 mmol per mol
[2]
  CO2 concentrations to which termites were attracted: 5, 10, 20 and 50 mmol per mol
